Results taken from patent publication US5908868A, “Retinol derivatives useful for enhancing immune response” (priority 1995, dated 1999).
The name of at least one read-out is uncertain.

System: SK-N-SH
Experiment: Retinol metabolism
Assay type: in vitro ADME, human
Settings: overnight
Method: FBS. The FBS was preincubated at room temperature with 14.4 uCi [^3 H
retinol (NEN) for 4 h. The cell pellet was washed twice with PBS. The
retinoid were extracted according to MClean et al. 90 and separated on an
analytical c18 reverse phase column according to FIG. 7. The DPM wer
determined using an online scintillation counter.

CC1=C(/C=C/C(C)=C/C=C/C(C)=C/CO)C(C)(C)CCC1 [retinol, all-trans retinol]
Retinol (% of taken up retinol): 56%
